Laboratory results: PMC7336387
The exact form of at least one protein or probe is not confirmed. For part of these data: Negatives hold for the conditions tested. At least one verdict was read from the data and is not stated in words by the source. Protein sequences can lack the tags named with them.

Key:
His6-MBP-SPL13 [1] = molecular target: T1, His6-MBP-SPL13 (UniProt A0A3Q7HAE1); assay: EMSA; conditions: LightShift Chemiluminescent EMSA Kit, 20 uL reaction, 30 min at room temperature, 6% native polyacrylamide gel; salt and pH not stated; recombinant protein; protein details: N-terminal His6-MBP; label: 3' biotin
T1 sequence (looked up, limits assumed): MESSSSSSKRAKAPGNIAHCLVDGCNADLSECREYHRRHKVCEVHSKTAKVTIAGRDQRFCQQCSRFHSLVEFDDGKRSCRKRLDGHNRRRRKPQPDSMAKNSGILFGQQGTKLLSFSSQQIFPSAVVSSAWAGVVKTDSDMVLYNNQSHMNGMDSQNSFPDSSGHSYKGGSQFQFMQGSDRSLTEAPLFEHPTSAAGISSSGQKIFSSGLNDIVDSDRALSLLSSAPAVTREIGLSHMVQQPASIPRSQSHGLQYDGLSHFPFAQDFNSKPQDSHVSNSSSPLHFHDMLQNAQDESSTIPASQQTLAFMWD

His6-MBP-SPL13 [2] = molecular target: T1, His6-MBP-SPL13; assay: competition with a labelled probe; conditions: LightShift Chemiluminescent EMSA Kit, 20 uL reaction, 30 min at room temperature, 6% native polyacrylamide gel, salt and pH not stated, recombinant protein, protein details: N-terminal His6-MBP

Sequence	binding result (His6-MBP-SPL13 [1])	other results
ATTTTGTAATAAAATATTAAGATTGCTCTTTTCTTATTG (double strand) [SFT mProbe 2]	no binding	–
TAACTAGCTAGCTAGGAAAGATCTTGTGTTGTGTTTTAG (double strand) [SFT mProbe 1]	no binding	–
ATTTTGTAATAAAATATTGTACTTGCTCTTTTCTTATTG (double strand) [SFT probe 2]	binds	–
ATTTTGTAATAAAATATTGTACTTGCTCTTTTCTTATTG (double strand) [SFT probe 2 unlabelled competitor]	–	binding result (His6-MBP-SPL13 [2]; labelled probe 2, competitor ratios 1:1 and 1:2): binds
TAACTAGCTAGCTAGGAGTACTCTTGTGTTGTGTTTTAG (double strand) [SFT probe 1 unlabelled competitor]	–	binding result (His6-MBP-SPL13 [2]; labelled probe 1, competitor ratios 1:1 and 1:2): binds
TAACTAGCTAGCTAGGAGTACTCTTGTGTTGTGTTTTAG (double strand) [SFT probe 1]	binds	–
